{"source": "paper PMC8470279", "about": "“Biosynthesis of the Novel Endogenous 15-Lipoxygenase Metabolites N-13-Hydroxy-octodecadienoyl-ethanolamine and 13-Hydroxy-octodecadienoyl-glycerol by Human Neutrophils and Eosinophils” (Cells, 2021)", "assay": "Levels of 13-HODE-G in mouse gastrointestinal tract by LC-MS/MS", "details": "mice; ± SEM", "data": [{"compound": "CCCCC[C@H](O)/C=C/C=C\\CCCCCCCC(=O)OCC(O)CO", "note": "(stereo partly shown) [13-HODE-G, 13-hydroxy-octodecadienoyl-glycerol]", "values": [{"measurement": "Level of 13-HODE-G, Caecum", "value": "997 ± 317 fmol/mg of tissue"}, {"measurement": "Level of 13-HODE-G, Duodenum", "value": "9746 ± 4360 fmol/mg of tissue"}, {"measurement": "Level of 13-HODE-G, Ileum", "value": "1165 ± 185 fmol/mg of tissue"}, {"measurement": "Level of 13-HODE-G, Jejunum", "value": "4810 ± 2692 fmol/mg of tissue"}]}]}
